The target of experiment [1] is Tripartite motif-containing 21 (TRIM21), Flag-tagged (human) (UniProt P19474). Nature of the experiment: co-IP; HEK293T co-transfected with the indicated plasmids for 24 h; NP-40 lysis buffer; indicated antibody or control IgG with Protein G Sepharose at 4 °C overnight; washes with lysis buffer containing 500 mM NaCl; immunoblotting. (In general: In western blotting, separated proteins are transferred to a membrane and probed.)

Chains of the proteins cited; added tags and fusions are not shown. Residues count along the entry.
UniProt P19474: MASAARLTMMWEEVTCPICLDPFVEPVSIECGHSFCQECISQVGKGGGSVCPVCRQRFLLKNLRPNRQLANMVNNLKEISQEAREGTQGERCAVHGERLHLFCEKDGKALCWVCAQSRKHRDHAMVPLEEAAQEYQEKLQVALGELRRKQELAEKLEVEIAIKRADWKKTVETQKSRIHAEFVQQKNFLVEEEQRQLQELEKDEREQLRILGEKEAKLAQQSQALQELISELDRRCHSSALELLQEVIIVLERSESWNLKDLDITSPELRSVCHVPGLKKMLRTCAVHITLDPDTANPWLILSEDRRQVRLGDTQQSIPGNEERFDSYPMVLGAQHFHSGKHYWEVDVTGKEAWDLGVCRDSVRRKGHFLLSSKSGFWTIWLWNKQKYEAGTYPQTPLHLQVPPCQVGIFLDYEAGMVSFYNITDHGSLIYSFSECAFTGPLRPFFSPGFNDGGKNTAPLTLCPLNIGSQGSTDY
UniProt P01833, residues 19-764: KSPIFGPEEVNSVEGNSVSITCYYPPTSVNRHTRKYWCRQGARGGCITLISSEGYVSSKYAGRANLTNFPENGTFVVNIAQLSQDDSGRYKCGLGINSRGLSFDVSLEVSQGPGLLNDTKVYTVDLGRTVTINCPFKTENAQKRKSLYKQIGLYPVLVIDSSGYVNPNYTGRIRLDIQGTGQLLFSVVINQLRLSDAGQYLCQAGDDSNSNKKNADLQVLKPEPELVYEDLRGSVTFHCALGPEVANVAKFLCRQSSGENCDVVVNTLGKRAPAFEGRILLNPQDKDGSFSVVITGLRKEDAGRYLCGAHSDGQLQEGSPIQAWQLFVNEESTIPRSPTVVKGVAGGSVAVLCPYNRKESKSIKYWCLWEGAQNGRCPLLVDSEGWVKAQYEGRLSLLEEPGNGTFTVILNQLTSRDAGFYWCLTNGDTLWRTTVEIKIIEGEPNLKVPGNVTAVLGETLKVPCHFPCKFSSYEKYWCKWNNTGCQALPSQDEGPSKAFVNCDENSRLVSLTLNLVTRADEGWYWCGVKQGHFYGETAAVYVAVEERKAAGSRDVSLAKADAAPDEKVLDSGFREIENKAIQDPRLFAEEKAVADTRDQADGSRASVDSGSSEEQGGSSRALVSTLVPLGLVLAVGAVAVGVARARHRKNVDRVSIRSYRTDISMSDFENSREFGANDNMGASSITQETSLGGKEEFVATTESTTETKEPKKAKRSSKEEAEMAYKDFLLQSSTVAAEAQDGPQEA

For experiment [2], the target named is polymeric immunoglobulin receptor (pIgR), Flag-tagged (human) (UniProt P01833). The experiment is described as above.
Experiment [3] deals with T1, Rab11-FIP5 (Rab11 family interacting protein 5), HA-tagged (human) (UniProt Q9BXF6).
T1 sequence: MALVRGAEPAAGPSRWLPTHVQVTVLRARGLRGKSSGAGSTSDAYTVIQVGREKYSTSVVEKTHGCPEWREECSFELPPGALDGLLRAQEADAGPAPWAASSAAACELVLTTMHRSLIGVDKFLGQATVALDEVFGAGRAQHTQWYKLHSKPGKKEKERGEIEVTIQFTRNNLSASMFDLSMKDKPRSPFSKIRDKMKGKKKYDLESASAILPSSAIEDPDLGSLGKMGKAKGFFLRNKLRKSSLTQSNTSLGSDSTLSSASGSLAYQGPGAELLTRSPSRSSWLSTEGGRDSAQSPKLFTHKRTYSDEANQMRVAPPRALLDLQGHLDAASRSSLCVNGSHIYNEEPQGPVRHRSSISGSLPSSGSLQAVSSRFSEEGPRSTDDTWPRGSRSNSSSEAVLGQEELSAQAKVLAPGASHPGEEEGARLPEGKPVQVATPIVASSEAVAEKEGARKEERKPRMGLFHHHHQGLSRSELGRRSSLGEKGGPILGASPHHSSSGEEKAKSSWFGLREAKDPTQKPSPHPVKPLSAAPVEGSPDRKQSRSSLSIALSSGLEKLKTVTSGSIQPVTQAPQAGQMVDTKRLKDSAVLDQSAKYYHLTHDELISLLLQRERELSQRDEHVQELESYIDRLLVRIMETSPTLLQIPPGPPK
The experiment is described as above.

Experiment [4] addresses polymeric immunoglobulin receptor (pIgR), Flag-tagged (human) (UniProt P01833). Kind of experiment: co-IP; HEK293T; co-transfection of HA-Rab11-FIP5 with V5-Rab11-FIP1 and pIgR-Flag to test competition for pIgR (Supplementary Figure S4A).

No constants are given. Whether binding was seen depends on the method and setting. Binding seen in cells or lysates may run through a third protein. Some entries that bind do so weakly or less than the wild type. Tags and fused reporters may be left off the sequences shown.

B1: Rab11-FIP5 (Rab11 family interacting protein 5), HA-tagged (protein, UniProt Q9BXF6 1-653)
chain: MALVRGAEPAAGPSRWLPTHVQVTVLRARGLRGKSSGAGSTSDAYTVIQVGREKYSTSVVEKTHGCPEWREECSFELPPGALDGLLRAQEADAGPAPWAASSAAACELVLTTMHRSLIGVDKFLGQATVALDEVFGAGRAQHTQWYKLHSKPGKKEKERGEIEVTIQFTRNNLSASMFDLSMKDKPRSPFSKIRDKMKGKKKYDLESASAILPSSAIEDPDLGSLGKMGKAKGFFLRNKLRKSSLTQSNTSLGSDSTLSSASGSLAYQGPGAELLTRSPSRSSWLSTEGGRDSAQSPKLFTHKRTYSDEANQMRVAPPRALLDLQGHLDAASRSSLCVNGSHIYNEEPQGPVRHRSSISGSLPSSGSLQAVSSRFSEEGPRSTDDTWPRGSRSNSSSEAVLGQEELSAQAKVLAPGASHPGEEEGARLPEGKPVQVATPIVASSEAVAEKEGARKEERKPRMGLFHHHHQGLSRSELGRRSSLGEKGGPILGASPHHSSSGEEKAKSSWFGLREAKDPTQKPSPHPVKPLSAAPVEGSPDRKQSRSSLSIALSSGLEKLKTVTSGSIQPVTQAPQAGQMVDTKRLKDSAVLDQSAKYYHLTHDELISLLLQRERELSQRDEHVQELESYIDRLLVRIMETSPTLLQIPPGPPK
B1: the binding entry in experiment [1] and in experiment [2] was “binds” in each case.

B2: Rab11-FIP1 (Rab11 family interacting protein 1), HA-tagged (protein, UniProt Q6WKZ4 1-1283)
chain: MSLMVSAGRGLGAVWSPTHVQVTVLQARGLRAKGPGGTSDAYAVIQVGKEKYATSVSERSLGAPVWREEATFELPSLLSSGPAAAATLQLTVLHRALLGLDKFLGRAEVDLRDLHRDQGRRKTQWYKLKSKPGKKDKERGEIEVDIQFMRNNMTASMFDLSMKDKSRNPFGKLKDKIKGKNKDSGSDTASAIIPSTTPSVDSDDESVVKDKKKKSKIKTLLSKSNLQKTPLSQSMSVLPTSKPEKVLLRPGDFQSQWDEDDNEDESSSASDVMSHKRTASTDLKQLNQVNFTLPKKEGLSFLGGLRSKNDVLSRSNVCINGNHVYLEQPEAKGEIKDSSPSSSPSPKGFRKKHLFSSTENLAAGSWKEPAEGGGLSSDRQLSESSTKDSLKSMTLPSYRPAPLVSGDLRENMAPANSEATKEAKESKKPESRRSSLLSLMTGKKDVAKGSEGENPLTVPGREKEGMLMGVKPGEDASGPAEDLVRRSEKDTAAVVSRQGSSLNLFEDVQITEPEAEPESKSEPRPPISSPRAPQTRAVKPRLEVSPEAQPTARLPSPTDSPSSLPPLPSSSGQASVPSELGHGADTQSSESPSVFSSLSSPIAAPISTSTPIESWPLVDRGQAKSEGPPLLPKAELQTESLTPVPNSGSSALGSLFKQPSFPANKGTEDSLMGRTRETGTEKNTSSLELEESLPEQPETGRQEEELPRFPCKKQDYSPSSGEAQEVPFALSLSSDGAVSPVGELAAGGDRDLESQAGSLVESKARDAAEEVAPPLPMGASVPSIDSMMRKLEEMGLNLRKDQKKTKKRVSFSEQLFTEEAVAGAALLVEGHSSCPQELNPAWSVAGNASDGEPPESPHAEDSERESVTTPGPATCGAPASPADHLLLPSQEESFSEVPMSEASSAKDTPLFRMEGEDALVTQYQSKASDHEGLLSDPLSDLQLVSDFKSPIMADLNLSLPSIPEVASDDERIDQVEDDGDQVEDDGETAKSSTLDIGALSLGLVVPCPERGKGPSGEADRLVLGEGLCDFRLQAPQASVTAPSEQTTEFGIHKPHLGKSSSLDKQLPGPSGGEEEKPMGNGSPSPPPGTSLDNPVPSPSPSEIFPVTHSFPSSAHSDTHHTSTAESQKKATAEGSAGRVENFGKRKPLLQAWVSPSETHPVSAQPGAGTGSAKHRLHPVKPMNAMATKVANCSLGTATIISENLNNEVMMKKYSPSDPAFAYAQLTHDELIQLVLKQKETISKKEFQVRELEDYIDNLLVRVMEETPNILRIPTQVGKKAGKM
Turning to B2, the binding entry in experiment [1], in experiment [3] and in experiment [2] was “binds” throughout.

B3: V5-Rab11-FIP1 (protein, UniProt Q6WKZ4 1-1283)
chain: MSLMVSAGRGLGAVWSPTHVQVTVLQARGLRAKGPGGTSDAYAVIQVGKEKYATSVSERSLGAPVWREEATFELPSLLSSGPAAAATLQLTVLHRALLGLDKFLGRAEVDLRDLHRDQGRRKTQWYKLKSKPGKKDKERGEIEVDIQFMRNNMTASMFDLSMKDKSRNPFGKLKDKIKGKNKDSGSDTASAIIPSTTPSVDSDDESVVKDKKKKSKIKTLLSKSNLQKTPLSQSMSVLPTSKPEKVLLRPGDFQSQWDEDDNEDESSSASDVMSHKRTASTDLKQLNQVNFTLPKKEGLSFLGGLRSKNDVLSRSNVCINGNHVYLEQPEAKGEIKDSSPSSSPSPKGFRKKHLFSSTENLAAGSWKEPAEGGGLSSDRQLSESSTKDSLKSMTLPSYRPAPLVSGDLRENMAPANSEATKEAKESKKPESRRSSLLSLMTGKKDVAKGSEGENPLTVPGREKEGMLMGVKPGEDASGPAEDLVRRSEKDTAAVVSRQGSSLNLFEDVQITEPEAEPESKSEPRPPISSPRAPQTRAVKPRLEVSPEAQPTARLPSPTDSPSSLPPLPSSSGQASVPSELGHGADTQSSESPSVFSSLSSPIAAPISTSTPIESWPLVDRGQAKSEGPPLLPKAELQTESLTPVPNSGSSALGSLFKQPSFPANKGTEDSLMGRTRETGTEKNTSSLELEESLPEQPETGRQEEELPRFPCKKQDYSPSSGEAQEVPFALSLSSDGAVSPVGELAAGGDRDLESQAGSLVESKARDAAEEVAPPLPMGASVPSIDSMMRKLEEMGLNLRKDQKKTKKRVSFSEQLFTEEAVAGAALLVEGHSSCPQELNPAWSVAGNASDGEPPESPHAEDSERESVTTPGPATCGAPASPADHLLLPSQEESFSEVPMSEASSAKDTPLFRMEGEDALVTQYQSKASDHEGLLSDPLSDLQLVSDFKSPIMADLNLSLPSIPEVASDDERIDQVEDDGDQVEDDGETAKSSTLDIGALSLGLVVPCPERGKGPSGEADRLVLGEGLCDFRLQAPQASVTAPSEQTTEFGIHKPHLGKSSSLDKQLPGPSGGEEEKPMGNGSPSPPPGTSLDNPVPSPSPSEIFPVTHSFPSSAHSDTHHTSTAESQKKATAEGSAGRVENFGKRKPLLQAWVSPSETHPVSAQPGAGTGSAKHRLHPVKPMNAMATKVANCSLGTATIISENLNNEVMMKKYSPSDPAFAYAQLTHDELIQLVLKQKETISKKEFQVRELEDYIDNLLVRVMEETPNILRIPTQVGKKAGKM
Turning to B3, in experiment [4], the binding result is on record as “binds”.

(Values after publication PMC8508952.)
